Measurements reported in PubChem BioAssay AID1224830 (NIAID, 2016)

Screen: 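Host factors that control LPS-induced TNF expression in human macrophages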 (primary screen)
Cell system: human THP-1 monocytic leukaemia cells, TNF dual-luciferase reporter clone, PMA-differentiated to macrophage-like cells
Knock-down reagent: siRNA pool against human genes, 50 nM
Timing: LPS for 4 h, given about 3 days after siRNA transfection
Challenge: bacterial LPS (TLR4 ligand), 10 ng/ml
Detection: 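Ratio of firefly to renilla light, scaled to the plate median and expressed as a robust z-score per replicate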
Scale: TNF reporter robust z-score: higher = stronger TNF reporter response to LPS
Active means: 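a well is active when its z-score exceeds 2.8 or falls below -1.5; control wells carry no call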
Shown is an unselected part of about 18,000 deposited reagents. About 2,900 of all reagents (16%) count as active. 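Calls are made per well; low scores hint the gene aids the LPS response, high scores that it dampens it.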 Repeated entries: four replicate wells of each siRNA pool. Reagent sequences are not shown.

Target gene	TNF reporter robust z-score	call
HSF5	-0.51	inactive
HSF5	-0.08	inactive
HSF5	0.38	inactive
HSF5	-0.18	inactive
OR13J1	-0.95	inactive
OR13J1	-0.19	inactive
OR13J1	-0.01	inactive
OR13J1	0.32	inactive
AGPAT2	-0.66	inactive
AGPAT2	0.73	inactive
AGPAT2	-0.86	inactive
AGPAT2	-0.1	inactive
CASP3	1.21	inactive
CASP3	-0.46	inactive
CASP3	-0.25	inactive
CASP3	0.45	inactive
GIMAP7	-1.51	active
GIMAP7	0.45	inactive
GIMAP7	0.3	inactive
GIMAP7	0.35	inactive
APTX	-0.02	inactive
APTX	0.26	inactive
APTX	-0.11	inactive
APTX	1.3	inactive
SURF6	0.06	inactive
SURF6	0.03	inactive
SURF6	-0.1	inactive
SURF6	-0.2	inactive
NUCB2	1.63	inactive
NUCB2	0.32	inactive
NUCB2	-0.02	inactive
NUCB2	0.27	inactive
CIBAR2	1.04	inactive
CIBAR2	0.85	inactive
CIBAR2	0.29	inactive
CIBAR2	0.56	inactive
TSKS	-1.37	inactive
TSKS	-1.67	active
TSKS	-1.13	inactive
TSKS	-1.39	inactive
POGK	-0.91	inactive
POGK	-0.37	inactive
POGK	-0.95	inactive
POGK	-0.63	inactive

Additional results follow:
Target gene	TNF reporter robust z-score	call
USP38	-0.65	inactive
USP38	0.06	inactive
USP38	0.48	inactive
USP38	1.16	inactive
MARVELD2	0.16	inactive
MARVELD2	1.19	inactive
MARVELD2	-0.26	inactive
MARVELD2	0.77	inactive
PCDHGA5	0.89	inactive
PCDHGA5	0.06	inactive
PCDHGA5	-0.15	inactive
PCDHGA5	0.67	inactive
ZNF585B	-0.34	inactive
ZNF585B	1.04	inactive
ZNF585B	1.01	inactive
ZNF585B	0.14	inactive
PCDHGB3	0.73	inactive
PCDHGB3	0.84	inactive
PCDHGB3	-0.35	inactive
PCDHGB3	-0.03	inactive
ISM2	-0.68	inactive
ISM2	1.46	inactive
ISM2	-0.86	inactive
ISM2	-0.46	inactive
ADAM17	-0.61	inactive
ADAM17	0.76	inactive
ADAM17	-0.1	inactive
ADAM17	0	inactive
ECE1	-0.7	inactive
ECE1	0.01	inactive
ECE1	-1.12	inactive
ECE1	0.74	inactive
CPSF6	-0.3	inactive
CPSF6	0.26	inactive
CPSF6	-0.67	inactive
CPSF6	-0.09	inactive
BTK	0.01	inactive
BTK	0.03	inactive
BTK	-0.36	inactive
BTK	0.21	inactive
FAM221A	-0.86	inactive
FAM221A	-0.7	inactive
FAM221A	-0.21	inactive
FAM221A	-0.74	inactive
HLA-DMA	-0.59	inactive
HLA-DMA	-0.31	inactive
HLA-DMA	-0.75	inactive
HLA-DMA	-0.51	inactive
DMAC2L	-0.79	inactive
DMAC2L	0.39	inactive
DMAC2L	-0.5	inactive
DMAC2L	0.35	inactive
CALCR	-1.59	active
CALCR	-0.11	inactive
CALCR	-1.26	inactive
CALCR	-0.14	inactive
HELT	-0.98	inactive
HELT	-1.22	inactive
HELT	-0.75	inactive
HELT	-0.95	inactive
TESK1	-0.65	inactive
TESK1	-0.76	inactive
TESK1	-1.6	active
TESK1	-0.13	inactive
COG6	-0.98	inactive
COG6	-0.82	inactive
COG6	-0.27	inactive
